This passage reports binding results from patent publication US20180354988A1 (University of California, published 2018).

By UniProt entry, the sequences of proteins in these tests, tags left out. Where a name states a change or a piece, a line headed by the entry shows the natural chain unless it says otherwise.
UniProt A8A705: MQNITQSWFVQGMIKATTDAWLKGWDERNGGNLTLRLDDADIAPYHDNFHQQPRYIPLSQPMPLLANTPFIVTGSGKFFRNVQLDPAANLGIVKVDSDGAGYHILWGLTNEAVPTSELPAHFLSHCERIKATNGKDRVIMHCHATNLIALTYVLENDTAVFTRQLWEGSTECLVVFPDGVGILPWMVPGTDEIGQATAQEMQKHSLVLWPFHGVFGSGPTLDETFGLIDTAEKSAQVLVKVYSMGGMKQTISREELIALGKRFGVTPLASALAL

Test [1] has as its target ^C18C98RhuA (Escherichia coli O9:H4 (strain HS)) (UniProt A8A705). Kind of test: self-assembly, TEM.
Test [2] addresses ^C22C98RhuA (Escherichia coli O9:H4 (strain HS)) (UniProt A8A705). Nature of the test: self-assembly, TEM.

Changes are numbered by the printed parent chain. Results are given in words; binding and its absence hold for the method and conditions named. Some results given as binding are weak or reduced against the parent protein; the word gives no strength.

B1: ^C18C98RhuA (enzyme)
chain: MQNITQSWFVQGMIKATCDAWLKGWDERNGGNLTLRLDDADIAPYHDNFHQQPRYIPLSQPMPLLANTPFIVTGSGKFFRNVQLDPAANLGIVKVDSCGAGYHILWGLTNEAVPTSELPAHFLSHSERIKATNGKDRVIMHCHATNLIALTYVLENDTAVFTRQLWEGSTECLVVFPDGVGILPWMVPGTDAIGQATAQEMQKHSLVLWPFHGVFGSGPTLDETFGLIDTAEKSAQVLVKVYSMGGMKQTISREELIALGKRFGVTPLASALAL
For the molecule B1, in test [1], the binding result was “binds”.

B2: ^C22C98RhuA (enzyme)
chain: B1 chain with C18T, L22C
Consider B2, for which the binding result in test [2] is recorded as “binds”.
